This assay has as its target T1, MAK-V-FLAG protein (C-terminally FLAG-tagged mouse MAK-V protein kinase) (mouse) (UniProt O88866).
T1 sequence: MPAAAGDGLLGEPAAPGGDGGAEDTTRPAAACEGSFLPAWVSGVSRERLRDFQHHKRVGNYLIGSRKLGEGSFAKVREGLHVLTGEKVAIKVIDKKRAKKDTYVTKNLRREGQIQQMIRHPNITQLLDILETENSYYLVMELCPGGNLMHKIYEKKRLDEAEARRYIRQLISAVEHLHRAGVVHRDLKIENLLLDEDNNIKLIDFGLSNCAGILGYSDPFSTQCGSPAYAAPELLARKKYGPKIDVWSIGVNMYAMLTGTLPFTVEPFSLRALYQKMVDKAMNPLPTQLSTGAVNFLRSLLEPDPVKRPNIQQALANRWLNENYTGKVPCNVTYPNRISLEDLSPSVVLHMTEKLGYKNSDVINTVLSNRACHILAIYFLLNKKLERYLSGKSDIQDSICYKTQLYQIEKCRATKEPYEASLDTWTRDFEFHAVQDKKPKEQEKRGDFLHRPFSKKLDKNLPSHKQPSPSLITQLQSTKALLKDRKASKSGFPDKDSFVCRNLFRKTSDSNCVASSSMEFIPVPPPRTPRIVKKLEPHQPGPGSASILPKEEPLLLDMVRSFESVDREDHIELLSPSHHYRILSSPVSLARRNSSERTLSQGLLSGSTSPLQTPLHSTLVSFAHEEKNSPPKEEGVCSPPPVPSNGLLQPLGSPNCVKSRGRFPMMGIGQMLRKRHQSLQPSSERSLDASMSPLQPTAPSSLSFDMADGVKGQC
Briefly: affinity purification with mass spectrometry; lysates of doxycycline-induced and non-induced PC12TetOn cells on anti-FLAG M2 affinity gel, 4°C, 2 hrs; elution with FLAG peptide; band cut from gel, MALDI-TOF peptide fingerprint.

Chains of the proteins cited; added tags and fusions are not shown.
UniProt Q62940: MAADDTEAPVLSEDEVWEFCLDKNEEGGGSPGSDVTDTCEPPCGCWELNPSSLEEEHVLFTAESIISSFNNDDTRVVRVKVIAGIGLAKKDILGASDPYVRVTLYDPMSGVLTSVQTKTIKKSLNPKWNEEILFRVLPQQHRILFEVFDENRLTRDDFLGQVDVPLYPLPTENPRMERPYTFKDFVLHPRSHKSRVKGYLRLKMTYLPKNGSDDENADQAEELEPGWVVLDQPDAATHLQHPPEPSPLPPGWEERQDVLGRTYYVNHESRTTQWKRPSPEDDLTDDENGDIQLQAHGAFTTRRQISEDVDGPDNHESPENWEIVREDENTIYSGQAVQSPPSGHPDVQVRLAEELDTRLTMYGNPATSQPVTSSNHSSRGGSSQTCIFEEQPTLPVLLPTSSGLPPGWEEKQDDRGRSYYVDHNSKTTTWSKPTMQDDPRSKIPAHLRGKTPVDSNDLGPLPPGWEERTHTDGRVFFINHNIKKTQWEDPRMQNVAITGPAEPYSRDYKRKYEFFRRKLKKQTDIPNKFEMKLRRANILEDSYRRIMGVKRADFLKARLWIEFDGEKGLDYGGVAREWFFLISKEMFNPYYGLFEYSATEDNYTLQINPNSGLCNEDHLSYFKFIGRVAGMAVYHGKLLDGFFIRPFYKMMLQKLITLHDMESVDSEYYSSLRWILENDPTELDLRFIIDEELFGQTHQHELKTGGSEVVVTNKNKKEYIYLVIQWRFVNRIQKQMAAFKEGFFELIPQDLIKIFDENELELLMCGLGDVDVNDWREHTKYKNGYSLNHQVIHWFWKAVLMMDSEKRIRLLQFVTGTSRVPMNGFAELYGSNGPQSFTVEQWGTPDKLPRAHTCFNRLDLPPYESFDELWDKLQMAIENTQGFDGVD

Drawing on publication PMC3379983, this text covers binding for 1 substance.

No constants are given. Whether binding was seen depends on the method and setting. In cells and extracts the contact can be indirect. These calls come from enrichment with a bait or labelling near it, and not all partners need be listed. Tags and fused reporters may be left off the sequences shown.

With “rat E3 ubiquitin ligase Nedd4 (endogenous in PC12TetOn cells) (from UniProt Q62940 1-887) (enzyme)”, the binding entry was “binds”.
